Laboratory results: patent publication US12038445B2, “Liver disease-related biomarkers and methods of use thereof” (Human Metabolomics Institute, Inc., priority 2016, dated 2024)

Experiment: Seven-BA panel in validation population (HB, fibrosis, cirrhosis, HCC)
Set-up: species or system human

Row | Compound | Serum BA concentration (CLD, mean) | Serum BA concentration (HB, mean) | Serum BA concentration (HCC, mean) | Serum BA concentration (Healthy, mean) | Serum BA concentration (cirrhosis C PA, mean) | Serum BA concentration (cirrhosis CP B, mean) | Serum BA concentration (cirrhosis CP C, mean) | Serum BA concentration (fibrosis S1, mean) | Serum BA concentration (fibrosis S2, mean) | Serum BA concentration (fibrosis S3, mean)
1 | C[C@H](CCC(=O)NCCS(=O)(=O)O)[C@H]1CC[C@H]2[C@@H]3[C@H](O)C[C@@H]4C[C@H](O)CC[C@]4(C)[C@H]3CC[C@]12C [TCDCA, taurochenodeoxycholic acid] | 1095.09 | 302.37 | 1874.03 | 17.73 | 1200.95 | 2014.23 | 2648.25 | 100.43 | 167.06 | 123.19
2 | C[C@H](CCC(=O)NCCS(=O)(=O)O)[C@H]1CC[C@H]2[C@@H]3[C@@H](O)C[C@@H]4C[C@H](O)CC[C@]4(C)[C@H]3CC[C@]12C [TUDCA, tauroursodeoxycholic acid] | 59.35 | 9.86 | 104.31 | 1.44 | 110.24 | 112.31 | 27.14 | 2.07 | 4.69 | 8.98
3 | C[C@H](CCC(=O)NCC(=O)O)[C@H]1CC[C@H]2[C@@H]3[C@@H](O)C[C@@H]4C[C@H](O)CC[C@]4(C)[C@H]3CC[C@]12C [GUDCA, glycoursodeoxycholic acid] | 325.59 | 183 | 396.15 | 20.59 | 384.04 | 552.14 | 800.07 | 37.77 | 86.67 | 112.12
4 | C[C@H](CCC(=O)NCCS(=O)(=O)O)[C@H]1CC[C@H]2[C@@H]3[C@H](O)C[C@@H]4C[C@H](O)CC[C@]4(C)[C@H]3C[C@H](O)[C@]12C [TCA, taurocholic acid] | 1048.86 | 178.59 | 975.61 | 6.24 | 2204.49 | 1738.21 | 3482.81 | 333.19 | 589.34 | 208.23
5 | CC(CCC(=O)NCC(=O)O)C1CCC2C3C(O)CC4CC(O)CCC4(C)C3CCC12C (stereo not shown) [GCDCA, glycochenodeoxycholic acid] | 3177.28 | 1303.79 | 2944.03 | 253.17 | 4932.87 | 4450.66 | 10659.05 | 1294.84 | 2554.43 | 1691.2
6 | C[C@H](CCC(=O)O)[C@H]1CC[C@H]2[C@@H]3C(=O)C[C@@H]4C[C@H](O)CC[C@]4(C)[C@H]3CC[C@]12C [7-KLCA, 7-ketolithocholic acid] | 11.14 | 6.79 | 14.61 | 2.26 | 16.95 | 17.49 | 9.49 | 2.35 | 3.92 | 5.11
7 | C[C@H](CCC(=O)NCC(=O)O)[C@H]1CC[C@H]2[C@@H]3[C@H](O)C[C@@H]4C[C@H](O)CC[C@]4(C)[C@H]3C[C@H](O)[C@]12C [GCA, glycocholic acid] | 1958.25 | 800.53 | 1996.93 | 72.99 | 3097.95 | 3077.65 | 4591.56 | 590.17 | 1956.61 | 775.59
